This is an account of results in PMC11058053.

The assay addresses T1, neuronatin (not stated (human EndoC-βH1 and rat INS1E cells cultured; the sentence stands in the section on human beta cells)) (UniProt Q16517).
T1 sequence: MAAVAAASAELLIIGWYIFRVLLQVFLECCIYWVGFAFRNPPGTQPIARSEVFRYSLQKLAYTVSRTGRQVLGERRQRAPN
The assay can be described thus: affinity purification with mass spectrometry; cells processed for immunoprecipitation with antibodies against NNAT (ab27266, Abcam, 1:500), then mass spectrometry; details in the ESM Methods.

Results are given in words; binding and its absence hold for the method and conditions named. In cells and extracts the contact can be indirect. A yes stands for co-enrichment or nearness to the bait. Other partners may have been found.

B1: SPCS1 (protein, UniProt Q9Y6A9 1-169)
chain: MARGGDTGCTGPSETSASGAAAIALPGLEGPATDAQCQTLPLTVLKSRSPSPRSLPPALSCPPPQPAMLEHLSSLPTQMDYKGQKLAEQMFQGIILFSAIVGFIYGYVAEQFGWTVYIVMAGFAFSCLLTLPPWPIYRRHPLKWLPVQESSTDDKKPGERKIKRHAKNN
For the molecule B1, the binding result was “binds”.
